The results in this text go back to patent US20240042019.

Amino acid sequences for entries named in this document (tags omitted). Residues count along the entry.
UniProt Q9NYK1, 27-1049: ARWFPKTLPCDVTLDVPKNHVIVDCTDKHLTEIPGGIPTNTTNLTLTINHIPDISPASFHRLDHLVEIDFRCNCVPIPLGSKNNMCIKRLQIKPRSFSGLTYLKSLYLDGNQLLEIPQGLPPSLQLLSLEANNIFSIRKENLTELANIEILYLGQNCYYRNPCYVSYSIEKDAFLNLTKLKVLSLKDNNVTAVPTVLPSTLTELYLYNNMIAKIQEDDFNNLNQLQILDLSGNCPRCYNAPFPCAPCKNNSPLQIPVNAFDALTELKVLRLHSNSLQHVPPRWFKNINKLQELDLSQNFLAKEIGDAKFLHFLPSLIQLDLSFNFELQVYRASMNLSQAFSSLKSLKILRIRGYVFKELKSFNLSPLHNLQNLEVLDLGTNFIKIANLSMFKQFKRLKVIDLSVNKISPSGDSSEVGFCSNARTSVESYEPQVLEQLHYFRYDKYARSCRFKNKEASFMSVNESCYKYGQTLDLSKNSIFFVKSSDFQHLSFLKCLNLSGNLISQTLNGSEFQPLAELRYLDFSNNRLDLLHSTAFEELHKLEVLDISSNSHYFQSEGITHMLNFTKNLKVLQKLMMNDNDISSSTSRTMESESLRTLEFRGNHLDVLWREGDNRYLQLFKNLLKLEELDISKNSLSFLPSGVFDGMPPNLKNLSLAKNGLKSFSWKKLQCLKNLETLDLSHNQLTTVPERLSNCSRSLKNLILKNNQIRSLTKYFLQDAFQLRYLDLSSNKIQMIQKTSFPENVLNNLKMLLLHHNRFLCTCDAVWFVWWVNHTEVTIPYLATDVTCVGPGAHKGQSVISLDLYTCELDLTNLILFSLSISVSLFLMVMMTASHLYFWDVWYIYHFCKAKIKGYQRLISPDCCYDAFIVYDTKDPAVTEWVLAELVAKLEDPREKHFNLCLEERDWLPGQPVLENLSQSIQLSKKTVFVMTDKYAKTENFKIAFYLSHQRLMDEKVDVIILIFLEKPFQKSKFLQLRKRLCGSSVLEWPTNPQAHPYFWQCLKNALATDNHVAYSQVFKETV
UniProt O00584, 25-256: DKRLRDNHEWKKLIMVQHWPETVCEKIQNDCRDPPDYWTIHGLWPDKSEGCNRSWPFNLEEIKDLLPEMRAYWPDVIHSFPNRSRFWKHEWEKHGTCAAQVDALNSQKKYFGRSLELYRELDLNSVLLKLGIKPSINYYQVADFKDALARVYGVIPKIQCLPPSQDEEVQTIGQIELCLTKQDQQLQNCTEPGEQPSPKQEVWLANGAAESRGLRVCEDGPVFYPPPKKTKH

For part of these data: Negatives hold for the conditions tested. For part of these data: Tags and fusion partners may be left off the protein sequences shown. A weaker result is weaker than the reference pair of the same experiment.

For one series, the target named is T1, TLR8 (Homo sapiens) (UniProt Q9NR97).
T1 sequence (looked up, limits assumed): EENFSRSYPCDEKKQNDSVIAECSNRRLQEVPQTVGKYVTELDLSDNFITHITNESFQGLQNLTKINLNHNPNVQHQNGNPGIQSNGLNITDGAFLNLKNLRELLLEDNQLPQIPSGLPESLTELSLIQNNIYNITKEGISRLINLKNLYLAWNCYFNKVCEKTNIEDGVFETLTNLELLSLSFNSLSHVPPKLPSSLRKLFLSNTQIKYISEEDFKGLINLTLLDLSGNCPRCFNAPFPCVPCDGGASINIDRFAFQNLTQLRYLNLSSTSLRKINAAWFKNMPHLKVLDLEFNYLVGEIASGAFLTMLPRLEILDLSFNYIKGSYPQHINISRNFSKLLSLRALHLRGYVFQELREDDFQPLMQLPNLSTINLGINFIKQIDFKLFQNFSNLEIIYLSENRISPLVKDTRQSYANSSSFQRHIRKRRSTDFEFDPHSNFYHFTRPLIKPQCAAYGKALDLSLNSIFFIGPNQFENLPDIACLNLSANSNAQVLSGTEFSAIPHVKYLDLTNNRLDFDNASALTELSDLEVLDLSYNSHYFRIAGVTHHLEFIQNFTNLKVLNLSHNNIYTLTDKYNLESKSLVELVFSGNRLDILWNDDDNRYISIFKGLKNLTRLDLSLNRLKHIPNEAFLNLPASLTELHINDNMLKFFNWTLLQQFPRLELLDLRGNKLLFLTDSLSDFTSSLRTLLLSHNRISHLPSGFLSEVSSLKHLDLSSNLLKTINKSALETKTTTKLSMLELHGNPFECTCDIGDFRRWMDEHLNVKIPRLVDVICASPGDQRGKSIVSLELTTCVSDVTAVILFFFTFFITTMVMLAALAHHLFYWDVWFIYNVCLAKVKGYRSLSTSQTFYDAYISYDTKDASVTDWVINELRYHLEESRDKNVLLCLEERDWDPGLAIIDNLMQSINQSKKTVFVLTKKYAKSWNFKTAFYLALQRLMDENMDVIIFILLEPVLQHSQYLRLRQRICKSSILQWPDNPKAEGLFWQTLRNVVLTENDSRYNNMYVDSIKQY
In words: activity in cells. The conditions noted are these: protein in cells, protein details: endogenous in human PBMC (monocytes).

The target of the next series is TLR7 (Homo sapiens) (UniProt Q9NYK1). In words: activity in cells. To be noted: protein in cells, protein details: endogenous in human PBMC (pDC).
In a further series the target is RNase T2 (UniProt O00584). The series can be described thus: enzyme reaction in vitro. The conditions noted are these: purified recombinant protein, protein details: Origene recombinant.
Setting [1] is: negative control, no cytokine response, only the site is given.

Turning to UCUCUCUCUCUCUCUCUCUC [ORN7006], in the series with TLR8 (Homo sapiens) (2'-OMe all C except 3' terminal C, little to no TNF-a with 2'3' cGMP, variant of ORN7005), the functional effect entry is recorded as “not active”. With CCGAGCCGCUUUUCCC [ORN7016], the functional effect result with TLR7 (Homo sapiens) (2'-OMe U10, 2'-F U12, PS except PO 3' of each modified U, TLR7-selective but weakly active, p-L-arginine, variant of ORN7013) is “active”; with TLR8 (Homo sapiens) (2'-OMe U10, 2'-F U12, PS except PO 3' of each modified U, TNF-a greatly reduced vs ORN7013, p-L-arginine, variant of ORN7013) it was “less active”. For the same sequence, the “activity on this sequence” value with RNase T2 (2'-OMe U10, 2'-F U12, PS except PO 3' of each modified U, slower than ORN7013, variant of ORN7013) was “less active”. Take UCUCUCUCUCUCUCUCUCUC [ORN7005]: the functional effect entry in the series with TLR8 (Homo sapiens) (DOTAP) is reported as “active”. In the case of UCUCUCUCUCUCUCUCUCUC [ORN7008], the functional effect entry with TLR8 (Homo sapiens) (full PS, DOTAP, increased vs ORN7005, variant of ORN7005) was “active”.

Take CCGAGCCGCUUUUCCC [ORN7022]: the functional effect result is “active” with TLR7 (Homo sapiens) (PS only within C*U*U*U*U*C motif, DOTAP 0.6 and 2 ug/ml, no TLR7 activity with p-L-arginine, variant of ORN7013); “active” with TLR8 (Homo sapiens) (PS only within C*U*U*U*U*C motif, DOTAP 0.6 and 2 ug/ml, variant of ORN7013). Consider CCGAGCCGCUUUUCCC [ORN7017], for which the functional effect entry with TLR7 (Homo sapiens) (2'-F U10, 2'-OMe U12, PS except PO 3' of each modified U, IFN-a maintained or lower vs ORN7013, p-L-arginine, variant of ORN7013) is reported as “active”; with TLR8 (Homo sapiens) (2'-F U10, 2'-OMe U12, PS except PO 3' of each modified U, TNF-a greatly reduced vs ORN7013, p-L-arginine, variant of ORN7013), “less active”. In addition, the “activity on this sequence” value with RNase T2 (2'-F U10, 2'-OMe U12, PS except PO 3' of each modified U, slower than ORN7013, variant of ORN7013) is reported as “less active”. On to CCGAGCCGCUUUUCCC [ORN7014], for which the functional effect entry in the series with TLR7 (Homo sapiens) (2'-OMe U10 and U12, PS except PO 3' of each modified U, IFN-a maintained or lower vs ORN7013, p-L-arginine, variant of ORN7013) is reported as “active”; in the series with TLR8 (Homo sapiens) (2'-OMe U10 and U12, PS except PO 3' of each modified U, TNF-a greatly reduced vs ORN7013, p-L-arginine, variant of ORN7013) it was “less active”. The “activity on this sequence” value with RNase T2 (2'-OMe U10 and U12, PS except PO 3' of each modified U, slower than ORN7013, variant of ORN7013) is recorded as “less active”. For CCUUCUUCUUCUUCUUCUUC [ORN7010], the functional effect entry in the series with TLR8 (Homo sapiens) (2'-OMe first U of each UUC, little to no TNF-a with 2'3' cGMP, variant of ORN7009) is recorded as “not active”. For the same sequence, the “activity on this sequence” value with RNase T2 (2'-OMe first U of each UUC, strong protection vs ORN7009, variant of ORN7009) is recorded as “less active”.

On to CAGACCUUCCAGACCUUC [ORN7004], for which the functional effect entry with TLR7 (Homo sapiens) (PS within each CUUC motif, DOTAP, mildly increased vs ORN7001, variant of ORN7001) is on record as “active”; with TLR8 (Homo sapiens) (PS within each CUUC motif, DOTAP, markedly increased vs ORN7001, variant of ORN7001), “active”. As to CGGCUCGGCAGAAGCCGGGCC [ORN7023Ome], the functional effect entry with TLR7 (Homo sapiens) (2'-OMe C4, increased activity vs ORN7023, selectivity maintained, variant of ORN7023) is recorded as “active”.

As for CAGACCUUCCAGACCUUC [ORN7001], the functional effect entry is “active” in the series with TLR7 (Homo sapiens) (DOTAP, none or minor with p-L-arginine) and “active” with TLR8 (Homo sapiens) (DOTAP). Take CGGCUCGGCAGAAGCCGGGCC [ORN7024]: the functional effect result with TLR7 (Homo sapiens) (full PS, reduced activity vs ORN7023, variant of ORN7023) is listed as “less active”. With UCUCUCUCUCUCUCUCUCUC [ORN7007], the functional effect entry with TLR8 (Homo sapiens) (2'-F all C except 3' terminal C, little to no TNF-a with 2'3' cGMP, variant of ORN7005) is recorded as “not active”. As for CCUUCUUCUUCUUCUUCUUC [ORN7011], the functional effect result with TLR8 (Homo sapiens) (2'-F first U of each UUC, little to no TNF-a with 2'3' cGMP, no TLR8 activity with DOTAP, variant of ORN7009) is listed as “not active”. For the same sequence, the “activity on this sequence” value with RNase T2 (2'-F first U of each UUC, strong protection vs ORN7009, variant of ORN7009) is on record as “less active”. On to CCUUCUUCUUCUUCUUCUUC [ORN7009], for which the functional effect result with TLR8 (Homo sapiens) (DOTAP) is reported as “active”. Moreover, the “activity on this sequence” value with RNase T2 (0.2 ug/ml RNase T2, 3-12 min, degraded faster than modified) is listed as “active”. Consider CGGCUCGGCAGAAGCCGGGCC [ORN7023], for which, in the series with TLR7 (Homo sapiens) (IFN-a, p-L-arginine, TLR7-selective), the functional effect result is “active”. Take CCGAGCCGCUUUUCCC [ORN7019]: in the series with TLR8 (Homo sapiens) (2'-F U10 and U12, PS 3' of U11 and U13 only, DOTAP, TLR8 activity only at 2 ug/ml, variant of ORN7013), the functional effect result was “less active”. For CGGCUCGGCAGAAGCCGGGCC [ORN7023F], the functional effect entry with TLR7 (Homo sapiens) (2'-F C4, increased activity vs ORN7023, selectivity maintained, variant of ORN7023) is listed as “active”. With CAGACCUUCCAGACCUUC [ORN7003], the functional effect result is given as “active” with TLR7 (Homo sapiens) (2'-F first U of each CUUC, DOTAP, maintained vs ORN7001, variant of ORN7001) and “not active” in the series with TLR8 (Homo sapiens) (2'-F first U of each CUUC, DOTAP, TLR8 activity eliminated, variant of ORN7001). As to CCGAGCCGCUUUUCCC [ORN7020], the functional effect result in the series with TLR7 (Homo sapiens) (2'-OMe U10, 2'-F U12, PS 3' of U11 and U13 only, no activity with p-L-arginine, low or none with DOTAP, variant of ORN7013) is “not active”. As for CCGAGCCGCUUUUCCC [ORN7021], the functional effect result with TLR7 (Homo sapiens) (2'-F U10, 2'-OMe U12, PS 3' of U11 and U13 only, no activity with p-L-arginine, low or none with DOTAP, variant of ORN7013) is “not active”.

Turning to CCUUCUUCUUCUUCUUCUUC [ORN7012], the functional effect result in the series with TLR8 (Homo sapiens) (full PS, DOTAP, increased vs ORN7009, variant of ORN7009) is “active”. Also, the “activity on this sequence” value with RNase T2 (full PS, strong protection vs ORN7009, variant of ORN7009) was “less active”. As to CACACACACACACACACACA [pCA], the functional effect entry with TLR7 (Homo sapiens) (setting [1]) and in the series with TLR8 (Homo sapiens) (setting [1]) was “not active” in each case. For GGUUGUUGUUGUUGUUGUUG [pU2G], the functional effect result is recorded as “active” with TLR7 (Homo sapiens) (positive control, DOTAP) and “active” with TLR8 (Homo sapiens) (positive control, DOTAP).

Turning to CCGAGCCGCUUUUCCC [ORN7018], the functional effect result in the series with TLR7 (Homo sapiens) (2'-OMe U10 and U12, PS 3' of U11 and U13 only, no activity with p-L-arginine, low or none with DOTAP, variant of ORN7013) was “not active”. Regarding CAGACCUUCCAGACCUUC [ORN7002], in the series with TLR7 (Homo sapiens) (2'-OMe first U of each CUUC, DOTAP, reduced vs ORN7001, variant of ORN7001), the functional effect result was “less active”.
